The assay has as its target Pdia4 (endogenous, Min6 cells) (mouse (endogenous in Min6)) (UniProt P08003). As to the kind of experiment: affinity purification with mass spectrometry; Min6 cells lysed with RIPA buffer; lysates precipitated with anti-Pdia4 antibody and isotype antibody; LC-MS, Mascot search.

Sequences of proteins named here, by UniProt entry; tags and fusion partners are left off. Residues count along the entry.
UniProt P08003, residues 21-638: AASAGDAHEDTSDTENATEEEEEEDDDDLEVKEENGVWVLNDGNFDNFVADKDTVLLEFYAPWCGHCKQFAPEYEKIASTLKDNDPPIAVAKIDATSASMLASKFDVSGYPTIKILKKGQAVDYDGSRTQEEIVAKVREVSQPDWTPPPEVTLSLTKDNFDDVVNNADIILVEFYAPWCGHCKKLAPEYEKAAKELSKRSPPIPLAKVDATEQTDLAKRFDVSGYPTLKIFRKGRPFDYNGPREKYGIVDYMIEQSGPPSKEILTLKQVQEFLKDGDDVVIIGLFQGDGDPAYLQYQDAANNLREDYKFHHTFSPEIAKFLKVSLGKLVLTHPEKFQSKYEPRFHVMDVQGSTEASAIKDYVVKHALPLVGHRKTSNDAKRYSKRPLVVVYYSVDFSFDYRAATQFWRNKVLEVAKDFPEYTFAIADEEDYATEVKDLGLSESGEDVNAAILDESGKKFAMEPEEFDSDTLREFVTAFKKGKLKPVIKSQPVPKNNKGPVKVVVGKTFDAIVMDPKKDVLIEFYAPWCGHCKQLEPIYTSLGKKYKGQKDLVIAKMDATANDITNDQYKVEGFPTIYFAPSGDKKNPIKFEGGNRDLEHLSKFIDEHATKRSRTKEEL
UniProt Q9DCT2, residues 36-263: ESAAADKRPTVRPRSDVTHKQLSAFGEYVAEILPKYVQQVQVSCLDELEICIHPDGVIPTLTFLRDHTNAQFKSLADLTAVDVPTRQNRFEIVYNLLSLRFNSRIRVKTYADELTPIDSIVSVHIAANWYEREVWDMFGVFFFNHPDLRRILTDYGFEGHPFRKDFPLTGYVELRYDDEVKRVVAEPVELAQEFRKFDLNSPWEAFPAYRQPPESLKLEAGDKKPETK

This passage reports binding results from paper PMC8495450.

No constants are given. Whether binding was seen depends on the method and setting. In cells and extracts the contact can be indirect. These calls come from enrichment with a bait or labelling near it, and not all partners need be listed.

As for “Ndufs3 (endogenous, Min6 cells) (from UniProt Q9DCT2 36-263)”, the binding entry was “binds”.

B1: p22^phox (endogenous, Min6 cells) (protein, UniProt Q61462 1-192)
chain: MGQIEWAMWANEQALASGLILITGGIVATAGRFTQWYFGAYSIAAGVLICLLEYPRGKRKKGSTMERCGQKYLTSVVKLFGPLTRNYYVRAALHFLLSVPAGFLLATILGTVCLAIASVIYLLAAIRGEQWTPIEPKPKERPQVGGTIKQPPTNPPPRPPAEVRKKPSEGEEEAASAGGPQVNPMPVTDEVV
In the case of B1, the binding entry is “binds”.
